Our source for the binding values is article PMC12430012.

Protein sequences, listed by entry. Tags and fused reporters are not part of them. Lines headed by an entry give the natural chain unless they say otherwise; changes in a name come on top. Chains listed by the source or under a name are the forms on record and can include a tag or linker. Residues count along the entry.
Myc-tagged DNAJB11 T188A (Q9UBS4, form named): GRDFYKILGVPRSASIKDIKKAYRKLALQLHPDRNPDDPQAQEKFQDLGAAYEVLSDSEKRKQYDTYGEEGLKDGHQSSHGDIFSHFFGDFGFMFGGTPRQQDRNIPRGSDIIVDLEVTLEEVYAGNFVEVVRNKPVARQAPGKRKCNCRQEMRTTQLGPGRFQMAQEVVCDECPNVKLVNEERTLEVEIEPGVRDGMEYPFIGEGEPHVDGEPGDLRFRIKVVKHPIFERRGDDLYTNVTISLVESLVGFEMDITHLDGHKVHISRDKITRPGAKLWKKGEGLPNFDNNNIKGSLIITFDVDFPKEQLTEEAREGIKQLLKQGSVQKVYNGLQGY
Myc-tagged DNAJB11 T188E (Q9UBS4, form named): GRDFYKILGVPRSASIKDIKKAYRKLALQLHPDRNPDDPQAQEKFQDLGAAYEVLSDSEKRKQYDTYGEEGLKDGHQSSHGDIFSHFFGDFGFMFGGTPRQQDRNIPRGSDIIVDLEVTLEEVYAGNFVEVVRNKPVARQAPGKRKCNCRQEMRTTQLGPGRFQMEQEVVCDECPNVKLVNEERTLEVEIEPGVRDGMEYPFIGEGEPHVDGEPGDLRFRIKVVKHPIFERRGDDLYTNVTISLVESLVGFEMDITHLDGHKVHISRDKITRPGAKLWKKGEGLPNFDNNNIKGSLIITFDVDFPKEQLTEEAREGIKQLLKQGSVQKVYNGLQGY
UniProt P11021, residues 19-654: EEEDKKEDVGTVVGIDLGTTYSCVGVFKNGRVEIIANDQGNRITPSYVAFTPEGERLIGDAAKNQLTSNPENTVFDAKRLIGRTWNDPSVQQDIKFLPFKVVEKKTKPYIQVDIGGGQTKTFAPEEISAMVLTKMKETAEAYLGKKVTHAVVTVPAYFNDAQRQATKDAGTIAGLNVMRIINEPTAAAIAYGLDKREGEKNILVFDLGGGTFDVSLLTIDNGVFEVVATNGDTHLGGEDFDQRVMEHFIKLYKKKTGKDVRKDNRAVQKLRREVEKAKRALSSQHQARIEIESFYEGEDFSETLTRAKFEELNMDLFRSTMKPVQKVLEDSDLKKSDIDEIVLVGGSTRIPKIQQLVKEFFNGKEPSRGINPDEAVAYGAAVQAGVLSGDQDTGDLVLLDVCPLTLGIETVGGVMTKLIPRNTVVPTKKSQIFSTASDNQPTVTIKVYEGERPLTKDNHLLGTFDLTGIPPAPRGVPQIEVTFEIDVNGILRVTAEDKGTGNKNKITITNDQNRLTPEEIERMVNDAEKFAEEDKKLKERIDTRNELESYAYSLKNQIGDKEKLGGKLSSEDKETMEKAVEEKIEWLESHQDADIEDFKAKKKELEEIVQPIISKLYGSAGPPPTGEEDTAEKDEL
UniProt P11142: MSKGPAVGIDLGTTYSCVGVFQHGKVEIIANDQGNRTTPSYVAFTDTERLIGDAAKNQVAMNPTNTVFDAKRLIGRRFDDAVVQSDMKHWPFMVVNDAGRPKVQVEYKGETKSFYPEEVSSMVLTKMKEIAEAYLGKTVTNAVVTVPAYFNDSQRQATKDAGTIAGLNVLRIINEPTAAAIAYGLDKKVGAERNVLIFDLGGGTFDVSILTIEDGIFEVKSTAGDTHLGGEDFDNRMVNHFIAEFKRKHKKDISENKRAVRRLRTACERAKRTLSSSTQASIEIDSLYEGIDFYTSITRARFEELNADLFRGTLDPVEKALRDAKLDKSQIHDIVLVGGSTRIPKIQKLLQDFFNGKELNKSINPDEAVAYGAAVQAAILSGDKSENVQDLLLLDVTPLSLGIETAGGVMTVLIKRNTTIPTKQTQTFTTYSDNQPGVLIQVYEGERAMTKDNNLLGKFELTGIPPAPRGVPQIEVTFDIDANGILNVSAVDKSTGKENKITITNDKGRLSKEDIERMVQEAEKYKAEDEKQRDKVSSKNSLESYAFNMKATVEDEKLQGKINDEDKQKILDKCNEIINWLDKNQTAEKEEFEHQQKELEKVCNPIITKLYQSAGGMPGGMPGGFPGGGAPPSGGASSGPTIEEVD

For experiment [1], the target named is Myc-tagged DNAJB11 T188A (human) (UniProt Q9UBS4). As to the kind of experiment: co-IP; SH-SY5Y cells expressing Myc-DNAJB11 (WT or mutants), etoposide 48 h; IP with anti-Myc, blots anti-BIP and anti-HSPA8.
Experiment [2] concerns the target Myc-tagged DNAJB11 T188E (human) (UniProt Q9UBS4). The experiment is described as above.

Results are given in words; binding and its absence hold for the method and conditions named. In cells and extracts the contact can be indirect. Some entries that bind do so weakly or less than the wild type.

BIP (from UniProt P11021 19-654): the binding entry in experiment [1] and in experiment [2] was “binds” throughout.

Turning to HSPA8 (from UniProt P11142 1-646), the binding result in experiment [1] and in experiment [2] was “no binding” in each case.
